# Taken from: PubChem BioAssay AID1508597 (Cure First, 2020)
# Aim: 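Genes whose silencing sensitises or protects ovarian cancer cells against rucaparib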 (primary screen)
# Cell system: human ovarian carcinoma lines grown from tumours: OCI-P5x (papillary serous) and OCI-C5x (clear cell)
# Reagent: siRNA pool against human genes, 1.25 pmol siRNA per well
# Time to read-out: 72 h or 96 h, depending on the cell culture
# Challenge: rucaparib 20 µM (about IC30) or vehicle, present until read-out
# Measurement: 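Luminescent ATP-based viability assay read 72 or 96 h after transfection, depending on culture, given as normalised percent viability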
# Direction: viability, normalised: higher = more viable cells remaining
# Active means: 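Active when normalised viability falls below 80 percent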
# Meaning of the calls: active = viability under 80%; inactive = viability 80% or more
# The whole screen tested about 2,100 reagents; below is a random part of them. 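Calls flag viability under 80% in either arm, not effects specific to rucaparib; the reference for percent is not stated.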 Not stated in the record: the 100% reference.
Target gene,rucaparib or vehicle,cell line,technical replicate,"viability, normalised (%)",activity call
AK9 (adenylate kinase 9),Rucaparib,OCI-C5x (clear cell),1,65.7,active
AK9 (adenylate kinase 9),Rucaparib,OCI-C5x (clear cell),2,59.6,active
AK9 (adenylate kinase 9),Rucaparib,OCI-C5x (clear cell),3,38.9,active
AK9 (adenylate kinase 9),Rucaparib,OCI-P5x (serous),1,67,active
AK9 (adenylate kinase 9),Rucaparib,OCI-P5x (serous),2,65.8,active
AK9 (adenylate kinase 9),Rucaparib,OCI-P5x (serous),3,65.5,active
AK9 (adenylate kinase 9),Vehicle,OCI-C5x (clear cell),1,68.7,active
AK9 (adenylate kinase 9),Vehicle,OCI-C5x (clear cell),2,48.6,active
AK9 (adenylate kinase 9),Vehicle,OCI-C5x (clear cell),3,54.6,active
AK9 (adenylate kinase 9),Vehicle,OCI-P5x (serous),1,61.2,active
AK9 (adenylate kinase 9),Vehicle,OCI-P5x (serous),2,54.4,active
AK9 (adenylate kinase 9),Vehicle,OCI-P5x (serous),3,55.6,active
GTF2H1 (general transcription factor IIH subunit 1),Rucaparib,OCI-C5x (clear cell),1,49.3,active
GTF2H1 (general transcription factor IIH subunit 1),Rucaparib,OCI-C5x (clear cell),2,32.5,active
GTF2H1 (general transcription factor IIH subunit 1),Rucaparib,OCI-C5x (clear cell),3,47.5,active
GTF2H1 (general transcription factor IIH subunit 1),Rucaparib,OCI-P5x (serous),1,85.7,inactive
GTF2H1 (general transcription factor IIH subunit 1),Rucaparib,OCI-P5x (serous),2,82.5,inactive
GTF2H1 (general transcription factor IIH subunit 1),Rucaparib,OCI-P5x (serous),3,68.4,active
GTF2H1 (general transcription factor IIH subunit 1),Vehicle,OCI-C5x (clear cell),1,53.1,active
GTF2H1 (general transcription factor IIH subunit 1),Vehicle,OCI-C5x (clear cell),2,67.9,active
GTF2H1 (general transcription factor IIH subunit 1),Vehicle,OCI-C5x (clear cell),3,51.6,active
GTF2H1 (general transcription factor IIH subunit 1),Vehicle,OCI-P5x (serous),1,74.6,active
GTF2H1 (general transcription factor IIH subunit 1),Vehicle,OCI-P5x (serous),2,71.9,active
GTF2H1 (general transcription factor IIH subunit 1),Vehicle,OCI-P5x (serous),3,66.3,active
